This test concerns the target T1, CMTM6-HA (UniProt Q9NX76).
T1 sequence: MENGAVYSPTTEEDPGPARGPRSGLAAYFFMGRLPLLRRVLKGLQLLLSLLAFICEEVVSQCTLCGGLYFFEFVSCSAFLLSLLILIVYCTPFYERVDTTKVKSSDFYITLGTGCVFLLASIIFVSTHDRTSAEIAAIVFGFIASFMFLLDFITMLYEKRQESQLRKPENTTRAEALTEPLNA
The test can be described thus: co-IP; HCT116 cells coexpressing CMTM6-HA and Rab11-FLAG; lysis buffer with 0.5% NP-40; anti-HA (12CA5) antibody and Protein G Sepharose beads pull down CMTM6-HA; WB for Glut1 and Rab11-FLAG.

Sequences of proteins named here, by UniProt entry; tags and fusion partners are left off.
UniProt P11166: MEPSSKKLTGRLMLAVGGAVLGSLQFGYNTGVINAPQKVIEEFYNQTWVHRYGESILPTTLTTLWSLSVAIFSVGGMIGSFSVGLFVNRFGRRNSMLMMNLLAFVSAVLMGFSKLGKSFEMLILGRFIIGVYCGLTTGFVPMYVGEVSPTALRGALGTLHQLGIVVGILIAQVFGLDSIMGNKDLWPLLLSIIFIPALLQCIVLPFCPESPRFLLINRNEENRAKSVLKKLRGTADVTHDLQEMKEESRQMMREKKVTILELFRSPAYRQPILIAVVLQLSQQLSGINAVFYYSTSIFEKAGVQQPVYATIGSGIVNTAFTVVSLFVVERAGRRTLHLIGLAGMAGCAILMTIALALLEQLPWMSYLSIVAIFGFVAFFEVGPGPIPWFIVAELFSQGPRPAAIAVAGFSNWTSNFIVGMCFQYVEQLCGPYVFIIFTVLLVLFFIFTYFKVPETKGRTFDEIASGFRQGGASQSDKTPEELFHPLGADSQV

Results are given in words; binding and its absence hold for the method and conditions named. In cells and extracts the contact can be indirect. Some binding calls cover weakened binding; strength is not graded here. Tags and fused reporters may be left off the sequences shown.

On to “Glucose transporter 1 (Glut1), endogenous in HCT116 cells (from UniProt P11166 1-492)”, for which the binding result was “binds”.

For the origin of these results see publication PMC11447025.
